For at least one compound, name, drawing or mass did not settle the structure.
Test system: immune-competent C57Bl/6 mice
Assay: PFO induction on spheres with GLA-secreting human cells and drug particles implanted in the peritoneum of mice
Type: in vivo
Settings: explanted after 20 days
Description: GLA-secreting human cells were co-encapsulated with particles of the indicated drug and implanted in the peritoneum of immune-competent C57Bl/6 mice.
GLA-secreting human ARPE-19 cells were co-encapsulated with or without TAH particles into spheres that were then implanted in the peritoneum of immune-competent C57Bl/6 mice.

`CO[C@H]1C[C@@H]2CC[C@@H](C)[C@@](O)(O2)C(=O)C(=O)N2CCCC[C@H]2C(=O)O[C@H]([C@H](C)C[C@@H]2CC[C@@H](O)[C@H](OC)C2)CC(=O)[C@H](C)/C=C(\C)[C@@H](O)[C@@H](OC)C(=O)[C@H](C)C[C@H](C)/C=C/C=C/C=C/1C` [Rapamycin] was tested, and the “PFO induction on explanted spheres (brightfield micrographs)” value (GLA-secreting human cells co-encapsulated with drug particles, peritoneum) was “extensive PFO induction” and the “computer aided opacity scoring of PFO induction” value (FIG. 4B) was “no statistically significant decrease in PFO induction”.

From patent US20250000788A1, “BIOCOMPATIBLE DEVICES FOR CELL-BASED THERAPIES AND RELATED METHODS” (SIGILON THERAPEUTICS, INC., priority 2021, published 2025)
